# Source: the supplement of paper PMC4604168 (melanoma cell lines)
# This is one part of the list. Many values rest on one well or one pass, so single values are uncertain.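 Imaging used 1,536-well plates; nuclei positive for cleaved PARP by antibody were divided by total DNA-stained nuclei to yield the apoptosis fraction. Doses for screening kept most cells viable, and cell lines differ markedly in resting and induced cleaved-PARP levels.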
# System: LOXIMVI
# Assay: cleaved PARP positive nuclei fraction relative to DMSO control; melanoma cells; higher = more apoptosis
# Settings: library dose: low library concentration; 72 h
row,SMILES,cleaved PARP positive nuclei fraction [%]
1,"O=C(Nc1ccccc1)c1cc([N+](=O)[O-])ccc1Cl + O=S(=O)(c1ccccc1)N(CC(F)(F)F)c1ccc(C(O)(C(F)(F)F)C(F)(F)F)cc1 [T0901317] (first compound 2 µM, partner dose 1.4 µM)",77.2
2,"CN(C)S(=O)(=O)c1ccc2c(c1)/C(=C/c1cc3c([nH]1)CCCC3)C(=O)N2 + NCC(=O)Nc1ccc(-n2nc(C(F)(F)F)cc2-c2ccc3c(ccc4ccccc43)c2)cc1 [OSU03012] (first compound 0.4 µM, partner dose 1 µM)",146
3,"N#Cc1c(O)c2c(-c3ccc(-c4ccccc4O)cc3)csc2[nH]c1=O + O=S(=O)(c1ccccc1)N(CC(F)(F)F)c1ccc(C(O)(C(F)(F)F)C(F)(F)F)cc1 [T0901317] (first compound 2 µM, partner dose 1.4 µM)",58.3
4,"NCC(=O)Nc1ccc(-n2nc(C(F)(F)F)cc2-c2ccc3c(ccc4ccccc43)c2)cc1 + COc1cc2c(Oc3ccc4[nH]c(C)cc4c3F)ncnc2cc1OCCCN1CCCC1 [cediranib] (first compound 1 µM, partner dose 0.4 µM)",117
5,"CN(NC(=O)CC(=O)NN(C)C(=S)c1ccccc1)C(=S)c1ccccc1 + c1cc(-c2cnn3cc(-c4ccc(OCCN5CCCCC5)cc4)cnc23)ccn1 [Dorsomorphin] (first compound 0.006 µM, partner dose 0.4 µM)",96.2
6,"COc1cc2c(Oc3ccc4[nH]c(C)cc4c3F)ncnc2cc1OCCCN1CCCC1 [cediranib] + c1cc(-c2cnn3cc(-c4ccc(OCCN5CCCCC5)cc4)cnc23)ccn1 [Dorsomorphin] (first compound 0.4 µM, partner dose 0.4 µM)",78.5
7,"CN(NC(=O)CC(=O)NN(C)C(=S)c1ccccc1)C(=S)c1ccccc1 + N#Cc1c(O)c2c(-c3ccc(-c4ccccc4O)cc3)csc2[nH]c1=O [A769662] (first compound 0.006 µM, partner dose 2 µM)",619
8,"O=C(O)c1ccc(-c2c[nH]c3ncc(-c4ccccc4)cc23)cc1C1CCCC1 + CN(NC(=O)CC(=O)NN(C)C(=S)c1ccccc1)C(=S)c1ccccc1 [STA4783] (first compound 0.16 µM, partner dose 0.006 µM)",67.7
9,"CN(C)S(=O)(=O)c1ccc2c(c1)/C(=C/c1cc3c([nH]1)CCCC3)C(=O)N2 + CC(C)CCN1c2nc(Nc3cc(F)c(O)c(F)c3)ncc2N(C)C(=O)C1C [BID1870] (first compound 0.4 µM, partner dose 0.2 µM)",59.9
10,"CN(NC(=O)CC(=O)NN(C)C(=S)c1ccccc1)C(=S)c1ccccc1 + COc1cc2c(Oc3ccc4[nH]c(C)cc4c3F)ncnc2cc1OCCCN1CCCC1 [cediranib] (first compound 0.006 µM, partner dose 0.4 µM)",74.7
11,"COC(=O)c1sccc1S(=O)(=O)Nc1ccc(Nc2ccccc2)cc1OC + COc1ccc(-c2ccc3c(N4CCOCC4)nc(N4C[C@@H](C)O[C@@H](C)C4)nc3n2)cc1CO [KU0063794] (first compound 1 µM, partner dose 0.02 µM)",53.6
12,"COc1ccc2c(c1)CCC1C2CCC2(C)C(NCCCCCCN3C(=O)C=CC3=O)CCC12 (stereo not drawn) + COc1cc(N2CCC(N3CCN(C)CC3)CC2)ccc1Nc1ncc(Cl)c(Nc2ccccc2S(=O)(=O)C(C)C)n1 [NVP-TAE684] (first compound 0.4 µM, partner dose 0.08 µM)",229
13,"O=C(O)C(=O)Nc1sc2c(c1C(=O)O)CCNC2 + COc1cc(N2CCC(N3CCN(C)CC3)CC2)ccc1Nc1ncc(Cl)c(Nc2ccccc2S(=O)(=O)C(C)C)n1 [NVP-TAE684] (first compound 1.66667 µM, partner dose 0.08 µM)",106
14,"CCCCCCCCCCCC1=C(O)C(=O)C=C(O)C1=O [Embelin] + O=c1cc(-c2cccc3c2Sc2ccccc2S3)oc(N2CCOCC2)c1 [KU55933] (first compound 1.2 µM, partner dose 1 µM)",95.2
15,"COc1cc2ncnc(Nc3ccc(Oc4ccccc4)cc3)c2cc1OC + CC(C)CCN1c2nc(Nc3cc(F)c(O)c(F)c3)ncc2N(C)C(=O)C1C [BID1870] (first compound 2 µM, partner dose 0.2 µM)",70
16,"N#Cc1c(O)c2c(-c3ccc(-c4ccccc4O)cc3)csc2[nH]c1=O + COC(=O)c1sccc1S(=O)(=O)Nc1ccc(Nc2ccccc2)cc1OC [GSK0660] (first compound 2 µM, partner dose 1 µM)",97.8
17,"NCC(=O)Nc1ccc(-n2nc(C(F)(F)F)cc2-c2ccc3c(ccc4ccccc43)c2)cc1 + CN(NC(=O)CC(=O)NN(C)C(=S)c1ccccc1)C(=S)c1ccccc1 [STA4783] (first compound 1 µM, partner dose 0.006 µM)",125

row,SMILES,cleaved PARP positive nuclei fraction [%]
1,"NCC(=O)Nc1ccc(-n2nc(C(F)(F)F)cc2-c2ccc3c(ccc4ccccc43)c2)cc1 + COc1cc(N2CCC(N3CCN(C)CC3)CC2)ccc1Nc1ncc(Cl)c(Nc2ccccc2S(=O)(=O)C(C)C)n1 [NVP-TAE684] (first compound 1 µM, partner dose 0.08 µM)",194
2,"CCc1ccc(CCOc2ccc(CC3SC(=O)NC3=O)cc2)nc1 (stereo not drawn) [pioglitazone] + O=C(O)C(=O)Nc1sc2c(c1C(=O)O)CCNC2 [TCS401] (first compound 2 µM, partner dose 1.66667 µM)",90.9
3,"CCN(CC)CCCCNc1ncc2cc(-c3cc(OC)cc(OC)c3)c(NC(=O)NC(C)(C)C)nc2n1 + Oc1cc(-c2nc(-c3ccccc3)[nH]c2-c2ccncc2)ccc1Cl [L779450] (first compound 0.1 µM, partner dose 0.2 µM)",136
4,"O=C1NC(=O)/C(=C/c2ccc(-c3ccc(F)cc3O)o2)S1 + Cc1cc([N+](=O)[O-])ccc1NS(=O)(=O)c1cc(Cl)ccc1Cl [FH535] (first compound 1 µM, partner dose 1 µM)",74.2
5,"c1cc(-c2cnn3cc(-c4ccc(OCCN5CCCCC5)cc4)cnc23)ccn1 [Dorsomorphin] + CCCCCCCCCCCC1=C(O)C(=O)C=C(O)C1=O [Embelin] (first compound 0.4 µM, partner dose 1.2 µM)",73.5
6,"COC(=O)c1sccc1S(=O)(=O)Nc1ccc(Nc2ccccc2)cc1OC + O=C(O)C(=O)Nc1sc2c(c1C(=O)O)CCNC2 [TCS401] (first compound 1 µM, partner dose 1.66667 µM)",74.6
7,"O=C(Nc1ccccc1)c1cc([N+](=O)[O-])ccc1Cl + COc1ccc(-c2ccc3c(N4CCOCC4)nc(N4C[C@@H](C)O[C@@H](C)C4)nc3n2)cc1CO [KU0063794] (first compound 2 µM, partner dose 0.02 µM)",49.4
8,"O=C(O)c1ccc(-c2c[nH]c3ncc(-c4ccccc4)cc23)cc1C1CCCC1 + COc1cc2c(Oc3ccc4[nH]c(C)cc4c3F)ncnc2cc1OCCCN1CCCC1 [cediranib] (first compound 0.16 µM, partner dose 0.4 µM)",62.7
9,"CN(C)S(=O)(=O)c1ccc2c(c1)/C(=C/c1cc3c([nH]1)CCCC3)C(=O)N2 + CN(NC(=O)CC(=O)NN(C)C(=S)c1ccccc1)C(=S)c1ccccc1 [STA4783] (first compound 0.4 µM, partner dose 0.006 µM)",87.5
10,"O=C(O)c1ccc(-c2c[nH]c3ncc(-c4ccccc4)cc23)cc1C1CCCC1 + NCC(=O)Nc1ccc(-n2nc(C(F)(F)F)cc2-c2ccc3c(ccc4ccccc43)c2)cc1 [OSU03012] (first compound 0.16 µM, partner dose 1 µM)",20.3
11,"CN(C)S(=O)(=O)c1ccc2c(c1)/C(=C/c1cc3c([nH]1)CCCC3)C(=O)N2 + COc1cc2c(Oc3ccc4[nH]c(C)cc4c3F)ncnc2cc1OCCCN1CCCC1 [cediranib] (first compound 0.4 µM, partner dose 0.4 µM)",84.3
12,"COC(=O)c1sccc1S(=O)(=O)Nc1ccc(Nc2ccccc2)cc1OC + Oc1cc(-c2nc(-c3ccccc3)[nH]c2-c2ccncc2)ccc1Cl [L779450] (first compound 1 µM, partner dose 0.2 µM)",46.7
13,"O=C1NC(=O)/C(=C/c2ccc(-c3ccc(F)cc3O)o2)S1 + CCCCCCCCCCCC1=C(O)C(=O)C=C(O)C1=O [Embelin] (first compound 1 µM, partner dose 1.2 µM)",103
14,"COc1cc(N2CCC(N3CCN(C)CC3)CC2)ccc1Nc1ncc(Cl)c(Nc2ccccc2S(=O)(=O)C(C)C)n1 + CC(C)CCN1c2nc(Nc3cc(F)c(O)c(F)c3)ncc2N(C)C(=O)C1C [BID1870] (first compound 0.08 µM, partner dose 0.2 µM)",27.4
15,"CN(C)S(=O)(=O)c1ccc2c(c1)/C(=C/c1cc3c([nH]1)CCCC3)C(=O)N2 + O=C(O)c1ccc(-c2c[nH]c3ncc(-c4ccccc4)cc23)cc1C1CCCC1 [GSK650394] (first compound 0.4 µM, partner dose 0.16 µM)",75.8
16,"COc1cc2ncnc(Nc3ccc(Oc4ccccc4)cc3)c2cc1OC + O=C1NC(=O)/C(=C/c2ccc(-c3ccc(F)cc3O)o2)S1 [AS252424] (first compound 2 µM, partner dose 1 µM)",67.6

# Some values from the results shown:
# cleaved PARP positive nuclei fraction [%] with CN(C)S(=O)(=O)c1ccc2c(c1)/C(=C/c1cc3c([nH]1)CCCC3)C(=O)N2 + COc1cc2c(Oc3ccc4[nH]c(C)cc4c3F)ncnc2cc1OCCCN1CCCC1 [cediranib] (first compound 0.4 µM, partner dose 0.4 µM) reads 84.3
# cleaved PARP positive nuclei fraction [%] with COc1cc(N2CCC(N3CCN(C)CC3)CC2)ccc1Nc1ncc(Cl)c(Nc2ccccc2S(=O)(=O)C(C)C)n1 + CC(C)CCN1c2nc(Nc3cc(F)c(O)c(F)c3)ncc2N(C)C(=O)C1C [BID1870] (first compound 0.08 µM, partner dose 0.2 µM) reads 27.4
